These are yes or no findings as the source states them, for the method shown. Some entries that bind do so weakly or less than the wild type.
Tests used:
[1] = target: HER3 extracellular domain (ECD) (R&D Systems) (human) (UniProt P21860); test: phage binding to HER3, normalized to parent phage
[2] = target: HER3 extracellular domain (ECD) (R&D Systems) (human) (UniProt P21860); test: phage ELISA on HER3 ECD

Amino acid sequences for entries named in this document (tags omitted). Residues count along the entry.
UniProt P21860, residues 20-643: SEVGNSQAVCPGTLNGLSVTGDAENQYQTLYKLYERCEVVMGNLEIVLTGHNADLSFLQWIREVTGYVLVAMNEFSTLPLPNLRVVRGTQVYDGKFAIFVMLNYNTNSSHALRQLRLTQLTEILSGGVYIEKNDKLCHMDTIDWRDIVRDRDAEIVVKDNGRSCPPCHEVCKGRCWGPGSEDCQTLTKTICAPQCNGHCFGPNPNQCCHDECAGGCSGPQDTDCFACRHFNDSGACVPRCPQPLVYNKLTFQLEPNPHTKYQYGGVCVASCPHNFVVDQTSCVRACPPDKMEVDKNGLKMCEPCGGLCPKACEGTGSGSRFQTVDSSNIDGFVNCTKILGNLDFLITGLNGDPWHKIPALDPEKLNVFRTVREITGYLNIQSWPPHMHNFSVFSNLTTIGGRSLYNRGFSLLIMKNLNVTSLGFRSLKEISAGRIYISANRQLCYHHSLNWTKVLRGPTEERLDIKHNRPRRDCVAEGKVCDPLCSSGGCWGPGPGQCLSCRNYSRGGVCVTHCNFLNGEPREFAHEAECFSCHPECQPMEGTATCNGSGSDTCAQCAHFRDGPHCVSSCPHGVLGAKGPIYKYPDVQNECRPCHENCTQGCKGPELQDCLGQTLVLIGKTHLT

CLPTKARSC (peptide, not shown: large carriers) [phage M5 (alanine mutant at position 6 of the HER3P1 binding sequence)]
binding [1]: binds

CLPTAFRSC (peptide, not shown: large carriers) [phage M4 (alanine mutant at position 5 of the HER3P1 binding sequence)]
binding [1]: binds

CLPTKFRSC (peptide, not shown: large carriers) [phage displaying the HER3P1 peptide (phages 1, 5, 17, 19, 26)]
binding [2]: binds

Reference: patent US20200121814A1 (GENERAL HOSPITAL, published 2020)
